The campaign covered roughly 320,000 compounds. About 2,100 (0.66%) were called active. Inconclusive results, whose numbers are uncertain, are shown with a selection of clear calls. The call rests on the fitted dose curve; in most records, active means well fitted inhibition curve with a large enough effect in the signal ratio, with a control signal flat (not every such curve was filed as active); inconclusive means small, poorly fitted or top-dose-only effect, or effect the other way, or a change in a side signal; inactive means flat fitted curve, though single readings scatter; the % refers to the signal ratio. Potencies of inconclusive entries are doubtful fits and often do not repeat.
assay: qHTS Assay for Lipid Storage Modulators in Drosophila S3 Cells; conditions: BODIPY lipid droplet fluorescence, 18-24 h, cells fed with added oleic acid; lipid storage change, negative = inhibition: at 46.1 µM (top of the series) unless noted
Procedure, shortened: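 Drosophila S3 cells got compounds at several concentrations plus oleic acid (400 uM solution). Laser-scanning cytometry with 488 nm excitation read lipid droplets at 500-530 nm and cells at 575-640 nm. Percent activity was relative to 20 uM Triacsin C.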
On the % scale 0 is the no-effect control and ±100 the full control effect; potency means the concentration at half of the fitted maximal effect.

Compound | lipid storage change, negative = inhibition | Potency
CCN(CC)CCCNC(=O)Cn1ncc2c(=O)oc3ccc(C)cc3c21 | inconclusive: 3.94% | –
CCCCCCCCOC(=O)c1ccc(N)cc1 | inconclusive: -7.59% | –
COc1ccc(NS(=O)(=O)c2cc(NC(=O)/C=C/c3cc(OC)c(OC)c(OC)c3)ccc2N2CCCCC2)cc1 | inconclusive: 28.9% | –
S=c1[nH]nc(Cc2ccccc2)n1-c1ccc(Cl)cc1 | – | inconclusive: 29.1 µM [falling, single point]
COc1ccc(-n2nc3c(c2NC(=O)C2CC2)CS(=O)C3)cc1 (configuration not stated) | inconclusive: -3.33% | –
O=C(c1cc(-c2ccc3c(c2)OCO3)on1)N1CCCCC1 | – | inconclusive: 0.58 µM [activator, single point]
COc1ccccc1OC(C)C(=O)N1CCN(Cc2ccc3c(c2)OCO3)CC1 (configuration not stated) | – | inconclusive: 0.231 µM [activator, full curve]
CCOC(=O)C(=N/O)/C(C)=N/NC(=O)C(=O)Nc1cc(Cl)ccc1Cl | inconclusive: -20.7% | –
N#CC(CC(=O)c1ccc(F)cc1)c1ccc2c(c1)OCO2 (configuration not stated) | – | inconclusive: 0.092 µM [falling, full curve, poor fit]
Cc1ccc(S(=O)(=O)Nc2ccc(S(=O)(=O)NC(C)(C)C)cc2)cc1 | – | inconclusive: 5.17 µM [activator, single point]
COc1ccc(/C=C(/NC(=O)c2ccc([N+](=O)[O-])cc2)C(=O)NCCCN(C)C)cc1 | inconclusive: 9.71% | –
Cc1cc(C)n2nc(SC(C)C(=O)NC3CCCCC3C)nc2n1 (configuration not stated) | – | inconclusive: 29.1 µM [falling, single point]
CCCNC(=O)c1ccccc1C(=O)NC1(C(=O)NCCC)CCCC1 | inconclusive: -20.4% | –
O=C1OC(Nc2ccc3ncccc3c2)c2ccccc21 (configuration not stated) | – | inconclusive: 16.4 µM [activator, single point]
Cc1cccc(N2C(=O)CC(Sc3nnc(C)s3)C2=O)c1 (configuration not stated) | – | inconclusive: 29.1 µM [cytotoxic, single point]
COc1ccc(S(=O)(=O)N2CCOCC2)cc1NC(=O)COC(=O)CCOc1ccc(C)cc1 | inconclusive: 35.8% | –
C=CCn1c(SCc2nc3sc(C(=O)O)c(C)c3c(=O)[nH]2)nnc1-c1ccccc1 | inactive | –
C[C@H](N)c1nnc(SCC(=O)c2ccc(Cl)cc2)o1 | inconclusive: 44.3% | –
O=C(Cc1ccc(Cl)cc1)Nc1cc(S(=O)(=O)N2CCOCC2)ccc1N1CCCC1 | inconclusive: 29.6% | –
CC1CC(C)CN(C(=O)COC(=O)/C=C/c2cccc([N+](=O)[O-])c2)C1 (configuration not stated) | inconclusive | –
CC(=O)C1=C(c2ccccc2)OC(N)=C(C#N)C1c1ccc(O)cc1 (configuration not stated) | inconclusive: -27.8% | –
CCc1ccc(CN2CCN(c3ncccn3)CC2)cc1 | inconclusive: 14% | –
Cc1nnc(SCCn2c(N3CCCC(C)C3)nc3c2c(=O)n(C)c(=O)n3C)s1 (configuration not stated) | inconclusive: -36.6% | –
COc1ccc(C2c3ccc4ccccc4c3Oc3ncn(CCN4CCOCC4)c(=N)c32)cc1OC (configuration not stated) | inconclusive: 7.83% | –

Compound | lipid storage change, negative = inhibition | Potency
COc1cc(OC)c(NC(=O)CN(C)S(=O)(=O)c2ccc3[nH]c(=O)oc3c2)cc1Cl | inconclusive: -100% | –
CSCCC(NC(=O)c1ccccc1)C(=O)N1CC(C)OC(C)C1 (configuration not stated) | inconclusive: 5.28% | –
N#Cc1cn(-c2ccccc2)nc1-c1ccco1 | inconclusive: -36.1% [at 0.0737 µM] | –
O=C(O)C1(c2ccccc2)CCC(Nc2ccccc2)C1 (configuration not stated) | inconclusive: 124% | –
CCOC(=O)c1c(C)[nH]c(C)c1C(=O)CSc1ncccn1 | – | inconclusive: 0.58 µM [activator, full curve]
CSc1ncccc1C(=O)OCc1ccccc1Cl | inconclusive: 21.4% | –
COc1cccc(NC(=O)C2CC2(c2cccc(OC)c2)c2cccc(OC)c2)c1 (configuration not stated) | – | inconclusive: 29.1 µM [falling, single point]
O=C1C=C(c2ccc(F)cc2OCc2ccccc2)C[C@@H](c2ccc3c(c2)OCO3)C1 | inconclusive: 16.9% | –
CC(C)CN1C(=O)c2ccc(NC(=O)c3ccccc3F)cc2C1=O | – | inconclusive: 2.59 µM [activator, partial curve]
CC(=O)c1c(N2CCOCC2)nc2ccc(Br)cc2c1-c1ccccc1 | – | inconclusive: 29.1 µM [activator, single point]
CSCCC(NS(=O)(=O)c1ccccc1F)C(=O)NCC(C)(C)N1CCOCC1 (configuration not stated) | – | inconclusive: 0.58 µM [falling, full curve]
CSCc1ccc(C(=O)NC(C)c2cnn(-c3ccccn3)c2C)o1 (configuration not stated) | – | inconclusive: 6.51 µM [activator, partial curve, poor fit]
CC(OC(=O)CN1C(=O)c2ccccc2C1=O)C(=O)NC1CCCC1 (configuration not stated) | – | inconclusive: 6.51 µM [activator, partial curve]
CCN1C(=O)[C@@H]2[C@@H](c3ccc(-c4ccc(C(C)=O)cc4)c(OC)c3)N3CCC[C@@]3(C(=O)OC)[C@@H]2C1=O | inconclusive: -22.7% | –
CCOc1ccc(NC(=O)CN(C)C(=O)Cc2c[nH]c3ccccc23)cc1OCC | inconclusive: 26.2% | –
CC1(C)CCN2CCC(C)(C)c3c(O)ccc1c32 | – | inconclusive: 5.8 µM [falling, full curve]
O=C(N/N=C/c1cc(Br)ccc1O)Nc1ccccc1 | inconclusive: -2.18% | –
CC(CCc1ccccc1)NC(=O)C(=O)NCCc1ccccc1 (configuration not stated) | – | inconclusive: 5.17 µM [activator, full curve]
Cc1cc(N=Cc2c(O)n(-c3cccc(C(F)(F)F)c3)c(=O)c3ccccc23)no1 | inconclusive: 12.1% | –
CCCCn1c(-c2cc(Cl)ccc2OC)n[nH]c1=S | – | inconclusive: 0.58 µM [activator, full curve]
Cc1ccccc1OCC(=O)Nc1ccc2[nH]ncc2c1 | – | inconclusive: 7.31 µM [activator, partial curve]
Cc1ccc(S(=O)(=O)N2CCN=C2SCc2c(F)cccc2Cl)cc1 | – | inconclusive: 13 µM [falling, single point]
Cc1cc(NC(=O)c2ccc(Cl)cc2)ccc1NC(=O)c1ccccc1Cl | – | inconclusive: 0.13 µM [activator, full curve, poor fit]
COc1ccc(Cl)cc1C(=O)Nc1nnn(C)n1 | inconclusive: -13.9% | –

Full records, looked up by structure:
CC(OC(=O)CN1C(=O)c2ccccc2C1=O)C(=O)NC1CCCC1 (configuration not stated) is listed as Potency: inconclusive: 6.51 µM [activator, partial curve]
CCOc1ccc(NC(=O)CN(C)C(=O)Cc2c[nH]c3ccccc23)cc1OCC is listed as lipid storage change, negative = inhibition: inconclusive: 26.2%

In the list so far, these have a furan ring, fused or not.
Compound | lipid storage change, negative = inhibition | Potency
N#Cc1cn(-c2ccccc2)nc1-c1ccco1 | inconclusive: -36.1% [at 0.0737 µM] | –
CSCc1ccc(C(=O)NC(C)c2cnn(-c3ccccn3)c2C)o1 (configuration not stated) | – | inconclusive: 6.51 µM [activator, partial curve, poor fit]

More records:

Compound | lipid storage change, negative = inhibition | Potency
COc1cc(-c2c(-c3cccc(C)c3)oc3ccccc23)cc(OC)c1OC | – | inconclusive: 29.1 µM [activator, single point]
CCCc1cc(C(=O)N2CCN(c3ccccc3C)CC2)cs1 | – | inconclusive: 7.31 µM [activator, partial curve]
COc1ccc(C(=O)c2c3ccccc3[n+]([O-])n2CCCN)cc1 | inconclusive: -63.4% | –
CCC(C)NCCOc1ccc(Br)cc1 (configuration not stated) | – | inconclusive: 7.31 µM [falling, partial curve, poor fit]
COc1ccccc1N1CCN(C(=O)COc2cccc3ccccc23)CC1 | inconclusive: -68% | –
COC(=O)C(CC(=O)c1ccc(Br)cc1)n1cccn1 (configuration not stated) | – | inconclusive: 29.1 µM [falling, single point]
O=C(c1cc(-c2cccc(O)c2)on1)N1CCCCC1 | – | inconclusive: 29.1 µM [falling, single point]
CCOC(=O)Nc1ccc2c(c1)N(C(=O)CN(CC)CC)c1ccccc1CC2 | – | inconclusive: 14.6 µM [activator, partial curve]
Cn1c(SCc2cccc([N+](=O)[O-])c2)nc2ccccc2c1=O | – | inconclusive: 29.1 µM [falling, single point]
COc1ccc(O)c(/C=N/NC(=O)CN2CCS(=O)(=O)CC2)c1 | – | inconclusive: 4.61 µM [falling, partial curve, poor fit]
Cc1ccc2cc3cc(C(=O)NCCCN4CC(C)CC(C)C4)oc3nc2c1 (configuration not stated) | inconclusive: -14.6% | –
CC(C)N(Cc1nc(-c2ccccc2)no1)C(=O)CN(C)S(=O)(=O)c1ccc(Br)cc1 | – | inconclusive: 29.1 µM [cytotoxic, single point]
O=C([C@@H]1CCCN1C(=O)c1cccs1)N1CCN(S(=O)(=O)c2ccccc2F)CC1 | – | inconclusive: 6.51 µM [activator, partial curve, poor fit]
O=C(O)C/C(=C\c1ccc2c(c1)OCO2)c1nc2ccccc2s1 | – | inconclusive: 0.291 µM [activator, partial curve]
COC(=O)c1[nH]c2ccc(C)cc2c1NC(=O)CN1CCc2cc(OC)c(OC)cc2C1 | inconclusive: 164% | –
Cc1ccc(C)c2[nH]c(=O)c(CCNC(=O)CC(C)C)cc12 | – | inconclusive: 0.326 µM [rising, full curve]
CC(C)(C)CN1CCNC(=O)C1CC(=O)N1CCC(C(=O)N2CCOCC2)CC1 (configuration not stated) | inconclusive: -10.6% | –
COc1ccc(N(Cc2ccco2)C(=O)c2ccccc2F)cc1OC | – | inconclusive: 6.51 µM [activator, single point]
COc1ccc2[nH]c(=O)c(CN(Cc3ccc(C)cc3)Cc3nnnn3CC3CCCO3)cc2c1 (configuration not stated) | inconclusive: 103% | –
C=CCNC(=O)c1ccccc1S(=O)c1ccccc1C#N (configuration not stated) | inconclusive: 14.5% | –
Cc1nc2ccccn2c1C(=O)NN=C1C2CC3CC(C2)CC1C3 | inconclusive: 91.1% | –
Cc1ccc(OCC(=O)Nc2ccccc2C(N)=O)cc1 | inconclusive: 31.9% | –
COc1ccc(NC(=O)CCCNC(=O)Cn2cnc3sc4c(c3c2=O)CCCC4)c(OC)c1 | inconclusive: 44% | –
CC(Sc1ccccc1)C(=O)Nc1ccccc1C(=O)N1CCOCC1 (configuration not stated) | inconclusive: -9.72% | –
